Assay [1] deals with T1, FLAG-LEM4 (human) (UniProt Q86XL3).
T1 sequence: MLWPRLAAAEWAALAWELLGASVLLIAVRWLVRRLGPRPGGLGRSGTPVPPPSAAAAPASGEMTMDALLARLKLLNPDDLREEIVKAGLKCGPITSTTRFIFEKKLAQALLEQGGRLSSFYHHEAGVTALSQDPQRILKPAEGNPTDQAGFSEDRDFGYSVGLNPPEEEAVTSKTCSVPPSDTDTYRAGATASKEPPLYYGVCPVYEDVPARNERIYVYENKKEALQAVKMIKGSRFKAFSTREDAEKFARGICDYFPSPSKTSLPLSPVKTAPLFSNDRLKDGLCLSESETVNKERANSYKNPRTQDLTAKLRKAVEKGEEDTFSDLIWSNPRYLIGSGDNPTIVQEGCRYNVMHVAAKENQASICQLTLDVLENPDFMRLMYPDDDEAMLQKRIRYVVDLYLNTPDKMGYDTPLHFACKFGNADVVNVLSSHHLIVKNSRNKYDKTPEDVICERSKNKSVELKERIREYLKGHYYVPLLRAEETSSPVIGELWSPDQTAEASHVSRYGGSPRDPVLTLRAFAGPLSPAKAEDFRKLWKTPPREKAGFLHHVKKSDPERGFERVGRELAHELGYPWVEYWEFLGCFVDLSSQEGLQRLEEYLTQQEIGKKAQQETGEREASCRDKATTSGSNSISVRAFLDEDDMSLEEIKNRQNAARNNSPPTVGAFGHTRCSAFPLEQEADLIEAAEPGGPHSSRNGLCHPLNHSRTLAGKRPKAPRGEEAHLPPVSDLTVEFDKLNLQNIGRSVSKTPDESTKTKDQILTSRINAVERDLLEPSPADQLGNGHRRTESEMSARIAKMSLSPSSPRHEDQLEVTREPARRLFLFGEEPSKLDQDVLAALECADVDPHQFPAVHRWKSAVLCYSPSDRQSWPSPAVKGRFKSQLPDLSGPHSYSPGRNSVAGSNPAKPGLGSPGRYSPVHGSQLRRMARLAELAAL
The assay is described as follows: co-IP; HEK293T cells co-transfected with a FLAG-tagged and a GFP-tagged protein; lysate precipitated with anti-FLAG affinity gel, immunoblot with anti-GFP antibody; for FLAG-ERα and GFP-Aurora-A in LEM4-depleted HEK293T-shLEM4 cells.

By UniProt entry, the sequences of proteins in these tests, tags left out.
UniProt P11802: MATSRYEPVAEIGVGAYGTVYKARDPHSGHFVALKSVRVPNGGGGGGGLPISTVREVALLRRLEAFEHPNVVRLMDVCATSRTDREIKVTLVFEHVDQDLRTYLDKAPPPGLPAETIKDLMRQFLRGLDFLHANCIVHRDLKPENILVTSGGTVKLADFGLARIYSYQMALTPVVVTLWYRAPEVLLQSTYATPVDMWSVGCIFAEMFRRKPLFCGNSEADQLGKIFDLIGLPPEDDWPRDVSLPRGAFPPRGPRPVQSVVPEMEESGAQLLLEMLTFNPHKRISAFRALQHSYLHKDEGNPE
UniProt P03372: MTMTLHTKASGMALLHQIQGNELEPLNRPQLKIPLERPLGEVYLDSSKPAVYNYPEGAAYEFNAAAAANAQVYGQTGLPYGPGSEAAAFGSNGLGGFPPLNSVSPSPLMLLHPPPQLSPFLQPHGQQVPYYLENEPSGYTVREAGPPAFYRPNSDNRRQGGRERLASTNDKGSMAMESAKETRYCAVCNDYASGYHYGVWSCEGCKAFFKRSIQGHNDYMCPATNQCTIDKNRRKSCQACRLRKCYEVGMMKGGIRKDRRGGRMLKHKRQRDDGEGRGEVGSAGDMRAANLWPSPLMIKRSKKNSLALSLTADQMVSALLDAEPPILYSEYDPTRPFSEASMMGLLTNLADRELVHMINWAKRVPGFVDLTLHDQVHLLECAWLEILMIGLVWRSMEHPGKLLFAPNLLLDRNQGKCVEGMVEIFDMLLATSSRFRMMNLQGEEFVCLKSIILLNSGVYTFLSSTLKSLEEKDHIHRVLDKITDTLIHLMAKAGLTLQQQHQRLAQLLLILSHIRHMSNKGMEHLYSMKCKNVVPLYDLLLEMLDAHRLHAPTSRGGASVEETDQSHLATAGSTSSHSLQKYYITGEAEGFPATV

Assay [2] deals with T2, GST-LEM4 (containing amino acids 59–938) (human) (UniProt Q86XL3).
T2 sequence: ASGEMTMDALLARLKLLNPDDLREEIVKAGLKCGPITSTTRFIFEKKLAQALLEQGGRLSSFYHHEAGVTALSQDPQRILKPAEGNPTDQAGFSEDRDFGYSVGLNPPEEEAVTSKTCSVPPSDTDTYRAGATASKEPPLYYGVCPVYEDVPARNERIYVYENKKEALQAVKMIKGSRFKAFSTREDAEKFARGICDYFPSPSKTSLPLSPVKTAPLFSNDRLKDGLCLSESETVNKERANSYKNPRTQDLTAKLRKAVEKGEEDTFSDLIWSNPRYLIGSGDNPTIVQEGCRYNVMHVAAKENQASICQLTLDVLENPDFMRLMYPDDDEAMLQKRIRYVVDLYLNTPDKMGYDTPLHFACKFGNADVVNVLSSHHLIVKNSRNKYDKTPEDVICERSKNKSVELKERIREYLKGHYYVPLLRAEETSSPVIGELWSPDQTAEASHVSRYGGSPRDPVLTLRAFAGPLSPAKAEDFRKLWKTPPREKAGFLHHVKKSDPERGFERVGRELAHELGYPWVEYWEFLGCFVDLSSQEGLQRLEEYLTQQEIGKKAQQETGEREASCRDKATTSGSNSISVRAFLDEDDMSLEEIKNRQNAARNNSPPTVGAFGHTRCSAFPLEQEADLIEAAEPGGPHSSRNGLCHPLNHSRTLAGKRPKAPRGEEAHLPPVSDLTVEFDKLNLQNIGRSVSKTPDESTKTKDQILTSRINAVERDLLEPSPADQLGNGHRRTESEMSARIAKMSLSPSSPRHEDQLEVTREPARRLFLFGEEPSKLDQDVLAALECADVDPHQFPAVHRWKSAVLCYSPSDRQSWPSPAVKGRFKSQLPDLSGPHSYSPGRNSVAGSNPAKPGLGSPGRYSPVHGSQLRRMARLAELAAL
Put plainly: pull-down; GST alone or GST-LEM4 immobilized on glutathione-agarose beads, incubated with extract of HEK293T cells transfected with GFP-ERα or GFP-tagged ERα mutants; immunoblot with anti-ERα antibody; only the target purified. On the technique in general: A western blot detects proteins with antibodies after separation by electrophoresis.

For assay [3], the target named is T2, GST-LEM4 (containing amino acids 59–938) (human). Put plainly: pull-down; GST alone or recombinant GST-LEM4 immobilized on glutathione-agarose beads, incubated with MCF7 cell extract at 4 °C for 2 h; immunoblot with CDK4 and Rb antibodies; only the target purified.
Assay [4] has as its target T1, FLAG-LEM4 (human). The assay is described as follows: co-IP; cells transfected with pCMV6-FLAG-LEM4 or empty vector (HEK293T in the legend, MCF7 in the text); anti-FLAG affinity gel, immunoblot with Rb antibody for endogenous Rb.
For the next assay, the target named is FLAG-CDK4 (UniProt P11802). The assay is described as follows: co-IP; HEK293T cells co-transfected with a FLAG-tagged and a GFP-tagged protein; lysate precipitated with anti-FLAG affinity gel, immunoblot with anti-GFP antibody; for FLAG-ERα and GFP-Aurora-A in LEM4-depleted HEK293T-shLEM4 cells.
Assay [5] concerns the target ERα (endogenous, BT474 cells) (human (endogenous in BT474)) (UniProt P03372). The assay is described as follows: co-IP; endogenous proteins, BT474 cells; immunoprecipitated with anti-ERα antibody, detected with anti-LEM4 antibody.

No constants are given. Whether binding was seen depends on the method and setting. Binding seen in cells or lysates may run through a third protein. Some entries that bind do so weakly or less than the wild type. For part of these data: Where a sequence is shown, tags or fusion partners need not be part of it.

For GFP-ERα (from UniProt P03372 1-595), the binding entry (with FLAG-LEM4 (human) [1]; in assay [2]) was “binds” throughout.

B1: Rb (endogenous, MCF7 cell extract) (protein, UniProt P06400 1-928)
chain: MPPKTPRKTAATAAAAAAEPPAPPPPPPPEEDPEQDSGPEDLPLVRLEFEETEEPDFTALCQKLKIPDHVRERAWLTWEKVSSVDGVLGGYIQKKKELWGICIFIAAVDLDEMSFTFTELQKNIEISVHKFFNLLKEIDTSTKVDNAMSRLLKKYDVLFALFSKLERTCELIYLTQPSSSISTEINSALVLKVSWITFLLAKGEVLQMEDDLVISFQLMLCVLDYFIKLSPPMLLKEPYKTAVIPINGSPRTPRRGQNRSARIAKQLENDTRIIEVLCKEHECNIDEVKNVYFKNFIPFMNSLGLVTSNGLPEVENLSKRYEEIYLKNKDLDARLFLDHDKTLQTDSIDSFETQRTPRKSNLDEEVNVIPPHTPVRTVMNTIQQLMMILNSASDQPSENLISYFNNCTVNPKESILKRVKDIGYIFKEKFAKAVGQGCVEIGSQRYKLGVRLYYRVMESMLKSEEERLSIQNFSKLLNDNIFHMSLLACALEVVMATYSRSTSQNLDSGTDLSFPWILNVLNLKAFDFYKVIESFIKAEGNLTREMIKHLERCEHRIMESLAWLSDSPLFDLIKQSKDREGPTDHLESACPLNLPLQNNHTAADMYLSPVRSPKKKGSTTRVNSTANAETQATSAFQTQKPLKSTSLSLFYKKVYRLAYLRLNTLCERLLSEHPELEHIIWTLFQHTLQNEYELMRDRHLDQIMMCSMYGICKVKNIDLKFKIIVTAYKDLPHAVQETFKRVLIKEEEYDSIIVFYNSVFMQRLKTNILQYASTRPPTLSPIPHIPRSPYKFPSSPLRIPGGNIYISPLKSPYKISEGLPTPTKMTPRSRILVSIGESFGTSEKFQKINQMVCNSDRVLKRSAEGSNPPKPLKKLRFDIEGSDEADGSKHLPGESKFQQKLAEMTSTRTRMQKQKMNDSMDTSNKEEK
For B1, the binding entry in assay [3] is “binds”.

B2: Rb (endogenous, in the cells transfected with FLAG-LEM4) (protein, UniProt P06400 1-928)
chain: MPPKTPRKTAATAAAAAAEPPAPPPPPPPEEDPEQDSGPEDLPLVRLEFEETEEPDFTALCQKLKIPDHVRERAWLTWEKVSSVDGVLGGYIQKKKELWGICIFIAAVDLDEMSFTFTELQKNIEISVHKFFNLLKEIDTSTKVDNAMSRLLKKYDVLFALFSKLERTCELIYLTQPSSSISTEINSALVLKVSWITFLLAKGEVLQMEDDLVISFQLMLCVLDYFIKLSPPMLLKEPYKTAVIPINGSPRTPRRGQNRSARIAKQLENDTRIIEVLCKEHECNIDEVKNVYFKNFIPFMNSLGLVTSNGLPEVENLSKRYEEIYLKNKDLDARLFLDHDKTLQTDSIDSFETQRTPRKSNLDEEVNVIPPHTPVRTVMNTIQQLMMILNSASDQPSENLISYFNNCTVNPKESILKRVKDIGYIFKEKFAKAVGQGCVEIGSQRYKLGVRLYYRVMESMLKSEEERLSIQNFSKLLNDNIFHMSLLACALEVVMATYSRSTSQNLDSGTDLSFPWILNVLNLKAFDFYKVIESFIKAEGNLTREMIKHLERCEHRIMESLAWLSDSPLFDLIKQSKDREGPTDHLESACPLNLPLQNNHTAADMYLSPVRSPKKKGSTTRVNSTANAETQATSAFQTQKPLKSTSLSLFYKKVYRLAYLRLNTLCERLLSEHPELEHIIWTLFQHTLQNEYELMRDRHLDQIMMCSMYGICKVKNIDLKFKIIVTAYKDLPHAVQETFKRVLIKEEEYDSIIVFYNSVFMQRLKTNILQYASTRPPTLSPIPHIPRSPYKFPSSPLRIPGGNIYISPLKSPYKISEGLPTPTKMTPRSRILVSIGESFGTSEKFQKINQMVCNSDRVLKRSAEGSNPPKPLKKLRFDIEGSDEADGSKHLPGESKFQQKLAEMTSTRTRMQKQKMNDSMDTSNKEEK
Take B2: in the assay with FLAG-LEM4 (human) [4], the binding entry is listed as “binds”.

B3: GFP-LEM4 (protein, UniProt Q86XL3 1-938)
chain: MLWPRLAAAEWAALAWELLGASVLLIAVRWLVRRLGPRPGGLGRSGTPVPPPSAAAAPASGEMTMDALLARLKLLNPDDLREEIVKAGLKCGPITSTTRFIFEKKLAQALLEQGGRLSSFYHHEAGVTALSQDPQRILKPAEGNPTDQAGFSEDRDFGYSVGLNPPEEEAVTSKTCSVPPSDTDTYRAGATASKEPPLYYGVCPVYEDVPARNERIYVYENKKEALQAVKMIKGSRFKAFSTREDAEKFARGICDYFPSPSKTSLPLSPVKTAPLFSNDRLKDGLCLSESETVNKERANSYKNPRTQDLTAKLRKAVEKGEEDTFSDLIWSNPRYLIGSGDNPTIVQEGCRYNVMHVAAKENQASICQLTLDVLENPDFMRLMYPDDDEAMLQKRIRYVVDLYLNTPDKMGYDTPLHFACKFGNADVVNVLSSHHLIVKNSRNKYDKTPEDVICERSKNKSVELKERIREYLKGHYYVPLLRAEETSSPVIGELWSPDQTAEASHVSRYGGSPRDPVLTLRAFAGPLSPAKAEDFRKLWKTPPREKAGFLHHVKKSDPERGFERVGRELAHELGYPWVEYWEFLGCFVDLSSQEGLQRLEEYLTQQEIGKKAQQETGEREASCRDKATTSGSNSISVRAFLDEDDMSLEEIKNRQNAARNNSPPTVGAFGHTRCSAFPLEQEADLIEAAEPGGPHSSRNGLCHPLNHSRTLAGKRPKAPRGEEAHLPPVSDLTVEFDKLNLQNIGRSVSKTPDESTKTKDQILTSRINAVERDLLEPSPADQLGNGHRRTESEMSARIAKMSLSPSSPRHEDQLEVTREPARRLFLFGEEPSKLDQDVLAALECADVDPHQFPAVHRWKSAVLCYSPSDRQSWPSPAVKGRFKSQLPDLSGPHSYSPGRNSVAGSNPAKPGLGSPGRYSPVHGSQLRRMARLAELAAL
As to B3, in the assay with FLAG-CDK4, the binding entry is recorded as “binds”.

B4: LEM4 (endogenous, BT474 cells) (protein, UniProt Q86XL3 1-938)
chain: MLWPRLAAAEWAALAWELLGASVLLIAVRWLVRRLGPRPGGLGRSGTPVPPPSAAAAPASGEMTMDALLARLKLLNPDDLREEIVKAGLKCGPITSTTRFIFEKKLAQALLEQGGRLSSFYHHEAGVTALSQDPQRILKPAEGNPTDQAGFSEDRDFGYSVGLNPPEEEAVTSKTCSVPPSDTDTYRAGATASKEPPLYYGVCPVYEDVPARNERIYVYENKKEALQAVKMIKGSRFKAFSTREDAEKFARGICDYFPSPSKTSLPLSPVKTAPLFSNDRLKDGLCLSESETVNKERANSYKNPRTQDLTAKLRKAVEKGEEDTFSDLIWSNPRYLIGSGDNPTIVQEGCRYNVMHVAAKENQASICQLTLDVLENPDFMRLMYPDDDEAMLQKRIRYVVDLYLNTPDKMGYDTPLHFACKFGNADVVNVLSSHHLIVKNSRNKYDKTPEDVICERSKNKSVELKERIREYLKGHYYVPLLRAEETSSPVIGELWSPDQTAEASHVSRYGGSPRDPVLTLRAFAGPLSPAKAEDFRKLWKTPPREKAGFLHHVKKSDPERGFERVGRELAHELGYPWVEYWEFLGCFVDLSSQEGLQRLEEYLTQQEIGKKAQQETGEREASCRDKATTSGSNSISVRAFLDEDDMSLEEIKNRQNAARNNSPPTVGAFGHTRCSAFPLEQEADLIEAAEPGGPHSSRNGLCHPLNHSRTLAGKRPKAPRGEEAHLPPVSDLTVEFDKLNLQNIGRSVSKTPDESTKTKDQILTSRINAVERDLLEPSPADQLGNGHRRTESEMSARIAKMSLSPSSPRHEDQLEVTREPARRLFLFGEEPSKLDQDVLAALECADVDPHQFPAVHRWKSAVLCYSPSDRQSWPSPAVKGRFKSQLPDLSGPHSYSPGRNSVAGSNPAKPGLGSPGRYSPVHGSQLRRMARLAELAAL
Consider B4, for which the binding result in assay [5] is “binds”.

Source of the values: publication PMC6177406.
